Read-outs that look alike come from different tables or passages of the source. The exact form of at least one protein or probe is not confirmed. The comparison behind a weaker result is the experiment's own reference, which may not be listed here.

By UniProt entry, the sequences of proteins in these tests, tags left out. Residues count along the entry.
UniProt P09874, 225-359: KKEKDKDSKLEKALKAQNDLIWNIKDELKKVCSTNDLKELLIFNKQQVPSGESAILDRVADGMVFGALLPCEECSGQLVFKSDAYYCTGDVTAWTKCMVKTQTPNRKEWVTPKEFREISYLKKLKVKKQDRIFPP

The target in the series is ZnF3 PARP1 (Homo sapiens) (UniProt P09874). As to the kind of experiment: fluorescence polarization. A general note: Fluorescence polarisation rises when a labelled molecule tumbles more slowly, as on binding a larger partner.

For the sequence “GCCTACCGGTTCGAATGGCAGC (double strand) [DSB DNA (5-FAM labelled)]”, the binding result was “binds more weakly”.
As for “GCTGGCTTCGTAAGAAGCCAGCTCGCGGTCAGCTTGCTGACCGCG [SSB DNA dumbbell 45-mer (5-FAM labelled)]”, the binding result (5'-phosphate (printed for unlabelled oligo)) is reported as “binds more weakly”.

These data come from doi:10.1101/2021.12.21.473685.
